PubChem BioAssay AID1259405, NCATS | 2018
The whole screen tested about 50,000 reagents; this is a part drawn at random. Of all reagents, about 4,000 (8%) are marked active. 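Mouse siRNA library applied to hamster cells; one well for each siRNA.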 The numbers tell different reagents against one gene apart.

- Assay: 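Knock-downs that lift recombinant protein yield in hamster ovary cells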 (primary screen)
- Cell system: Chinese hamster CHO-K1 ovary cells with stable secreted eGFP expression
- Knock-down reagent: single siRNA against mouse genes, 0.8 pmol siRNA per well (2 µl of 400 nM stock)
- Duration: 3 days
- Detection: 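Percent of the per-plate non-targeting control median for intracellular GFP per well by laser scanning cytometry and for cell viability by ATP luminescence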
- Scale: GFP, % of control: higher = more GFP per well, higher productivity; viability (ATP), % of control: higher = more viable cells (more ATP)
- Rule for the call: 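Called active when intracellular GFP, relative to negative control, is at or above 120%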

GFP, % of control | viability (ATP), % of control | call | gene | reagent no.
83.6 | 113 | inactive | Hspbap1 | 1
75.5 | 83.6 | inactive | Hspbap1 | 2
106 | 96.7 | inactive | Hspbap1 | 3
67.2 | 58.5 | inactive | Ccser2 | 1
58.7 | 58.3 | inactive | Ccser2 | 2
79.7 | 80.7 | inactive | Ccser2 | 3
68.6 | 94.9 | inactive | Nfkbie | 1
110 | 41.5 | inactive | Nfkbie | 2
156 | 85.1 | active | Gys2 | 1
147 | 140 | active | Gys2 | 2
70.7 | 87.4 | inactive | Gys2 | 3
101 | 91.7 | inactive | Il6ra | 1
90 | 64.9 | inactive | Il6ra | 2
55.9 | 51.7 | inactive | Il6ra | 3
81.4 | 81.3 | inactive | Zfand2b | 1
70.6 | 76.6 | inactive | Zfand2b | 2
63.4 | 61.6 | inactive | Zfand2b | 3
35.1 | 45.3 | inactive | Cbln2 | 1
32.2 | 36.9 | inactive | Cbln2 | 2
85.4 | 67.1 | inactive | Cbln2 | 3
53.6 | 59.5 | inactive | Vmn1r205 | 1
46.1 | 42.2 | inactive | Vmn1r205 | 2
106 | 93.9 | inactive | Vmn1r205 | 3
88.8 | 89.5 | inactive | Naxd | 1
104 | 76.3 | inactive | Naxd | 2
82.9 | 67.3 | inactive | Naxd | 3
70.2 | 60.4 | inactive | Cd160 | 1
94.5 | 75.8 | inactive | Cd160 | 2
127 | 91.2 | active | Cd160 | 3
84.6 | 68.5 | inactive | Kap | 1
104 | 88.1 | inactive | Kap | 2
84.4 | 64.8 | inactive | Kap | 3
100 | 61.8 | inactive | Vmn1r239-ps | 1
72.2 | 48.8 | inactive | Vmn1r239-ps | 2
49.5 | 73.2 | inactive | Vmn1r239-ps | 3
41.7 | 85.6 | inactive | Wdcp | 1
69.2 | 104 | inactive | Wdcp | 2
93.7 | 114 | inactive | Wdcp | 3
238 | 97.1 | active | Med14 | 1
45.4 | 54.1 | inactive | Med14 | 2
67.2 | 27.4 | inactive | Med14 | 3
50.8 | 61.7 | inactive | Lpin3 | 1
54.5 | 66.9 | inactive | Lpin3 | 2
60.2 | 25.7 | inactive | Lpin3 | 3
60.5 | 49.7 | inactive | Dapp1 | 1
81 | 75.2 | inactive | Dapp1 | 2
92 | 63.1 | inactive | Dapp1 | 3
137 | 77.8 | active | Homer1 | 1
94.2 | 86.9 | inactive | Homer1 | 2
84.4 | 84.5 | inactive | Homer1 | 3
115 | 57.2 | inactive | Wdr33 | 1
70.8 | 84 | inactive | Wdr33 | 2
81.5 | 61.6 | inactive | Wdr33 | 3
24.4 | 38.3 | inactive | Tpr | 1
58.9 | 94.4 | inactive | Tpr | 2
105 | 135 | inactive | Tpr | 3
94.9 | 56.9 | inactive | Get3 | 1
108 | 90.9 | inactive | Get3 | 2
93 | 62.7 | inactive | Get3 | 3

Limited to “GFP, % of control”, for 4 of the entries above:
Vmn1r239-ps #2: 72.2
Vmn1r239-ps #3: 49.5
Wdcp #1: 41.7
Wdcp #2: 69.2
